Assay results as given in paper doi:10.1101/356592 (bioRxiv, 2018).
No constants are given. Whether binding was seen depends on the method and setting. In cells and extracts the contact can be indirect. Binding can be weak; no strength is given. Sequences can lack the tags named with a protein.

Protein sequences, listed by entry. Tags and fused reporters are not part of them. Lines headed by an entry give the natural chain unless they say otherwise; changes in a name come on top.
UniProt P25454: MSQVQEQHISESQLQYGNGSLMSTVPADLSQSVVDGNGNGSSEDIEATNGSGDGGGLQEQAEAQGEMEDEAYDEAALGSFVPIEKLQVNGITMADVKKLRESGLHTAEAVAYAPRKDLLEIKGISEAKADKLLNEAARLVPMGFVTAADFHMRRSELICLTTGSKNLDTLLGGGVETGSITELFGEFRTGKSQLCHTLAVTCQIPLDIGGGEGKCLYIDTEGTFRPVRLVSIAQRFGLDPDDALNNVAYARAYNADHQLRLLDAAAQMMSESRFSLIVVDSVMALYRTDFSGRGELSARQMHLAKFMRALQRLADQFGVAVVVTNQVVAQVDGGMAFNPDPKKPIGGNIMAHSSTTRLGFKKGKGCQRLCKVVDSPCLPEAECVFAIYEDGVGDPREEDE

Biological target: T1, His6-tagged Dmc1 (Saccharomyces cerevisiae, UniProt P25453 1-334)
T1 sequence (looked up): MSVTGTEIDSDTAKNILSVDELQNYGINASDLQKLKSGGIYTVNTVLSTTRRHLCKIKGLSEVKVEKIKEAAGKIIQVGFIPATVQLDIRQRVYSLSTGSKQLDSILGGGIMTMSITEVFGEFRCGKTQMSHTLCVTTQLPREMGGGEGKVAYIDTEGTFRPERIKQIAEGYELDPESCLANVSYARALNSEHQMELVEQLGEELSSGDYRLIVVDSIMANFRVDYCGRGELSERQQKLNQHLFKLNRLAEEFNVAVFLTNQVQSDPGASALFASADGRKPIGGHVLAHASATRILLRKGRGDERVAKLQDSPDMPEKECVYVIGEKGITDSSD
Test: co-IP

binding: binds
Substance: His6-tagged Rad51-II3A (from UniProt P25454)
